# Results: paper PMC5996148
# The other results are listed elsewhere or left out. For some assays here: The exact form of the protein is not confirmed.
# Tests used:
# Assay in all cases: protein microarray (ProtoArray v5.0), streptavidin-Alexa Fluor 647
# Details in all cases: 3'-biotin; 20 mM Tris (pH 7.5), 5 mM MgCl2, 100 mM KCl, 0.1% Tween-20, A/T-rich and random oligonucleotide blockers; temperature not stated; high values mean tight binding
# [1] = system: PBK (human)
# [2] = system: PBLD (human)
# [3] = system: PBRM1 (human)
# [4] = system: PCBD1 (human)
# [5] = system: PCBD2 (human)
# [6] = system: PCBP1 (human)
# [7] = system: PCBP4 (human)
# [8] = system: PCDHB16 (human)
# [9] = target: T1, PCDHGA5 (UniProt Q9Y5G8)
# T1 sequence: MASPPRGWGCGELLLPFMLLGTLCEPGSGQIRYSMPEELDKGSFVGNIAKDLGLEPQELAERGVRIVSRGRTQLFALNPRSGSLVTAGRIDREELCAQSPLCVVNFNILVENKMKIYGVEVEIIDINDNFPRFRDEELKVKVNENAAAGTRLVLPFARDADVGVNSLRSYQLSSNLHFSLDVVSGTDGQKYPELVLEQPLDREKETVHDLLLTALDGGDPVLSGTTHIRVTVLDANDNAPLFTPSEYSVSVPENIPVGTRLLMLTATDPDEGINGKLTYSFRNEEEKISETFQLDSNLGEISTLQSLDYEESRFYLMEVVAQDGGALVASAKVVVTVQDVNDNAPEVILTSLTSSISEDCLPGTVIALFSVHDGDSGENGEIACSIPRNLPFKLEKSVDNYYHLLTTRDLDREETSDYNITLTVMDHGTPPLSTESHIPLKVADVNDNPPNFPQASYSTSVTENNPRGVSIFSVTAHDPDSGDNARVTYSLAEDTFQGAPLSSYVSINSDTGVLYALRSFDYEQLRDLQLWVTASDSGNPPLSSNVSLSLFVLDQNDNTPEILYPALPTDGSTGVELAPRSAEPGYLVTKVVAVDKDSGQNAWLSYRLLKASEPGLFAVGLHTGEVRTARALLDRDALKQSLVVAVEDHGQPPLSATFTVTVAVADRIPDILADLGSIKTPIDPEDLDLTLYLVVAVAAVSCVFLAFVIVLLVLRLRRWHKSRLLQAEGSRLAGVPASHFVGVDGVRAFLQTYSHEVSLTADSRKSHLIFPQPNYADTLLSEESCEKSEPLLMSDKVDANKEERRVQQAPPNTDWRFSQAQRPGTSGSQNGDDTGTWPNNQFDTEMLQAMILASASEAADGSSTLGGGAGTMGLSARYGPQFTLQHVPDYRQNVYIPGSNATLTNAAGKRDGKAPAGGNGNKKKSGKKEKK
# [10] = system: PCDHGC4 (human)
# [11] = system: PCDHGC5 (human)
# [12] = system: PCK1 (human)
# [13] = system: PCLO (human)
# [14] = system: PCNA (human)
# [15] = system: PCSK4 (human)
# [16] = system: PCTP (human)
# [17] = system: PCYT1B (human)
# [18] = target: T2, PDCD5 (UniProt O14737)
# T2 sequence: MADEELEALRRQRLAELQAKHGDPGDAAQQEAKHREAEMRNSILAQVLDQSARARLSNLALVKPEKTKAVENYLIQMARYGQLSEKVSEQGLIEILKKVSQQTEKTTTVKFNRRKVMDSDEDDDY
# [19] = system: PDCL (human)
# [20] = system: PDE4A (human)
sequence,measurement,setting,value
GGGAGGCTGAGGCAGG [G4-1 biotinylated (PQS2)],binding signal,[1],-0.353 z-score
same,binding signal,[2],-0.347 z-score
same,binding signal,[3],-0.276 z-score
same,binding signal,[4],-0.341 z-score
same,binding signal,[5],-0.299 z-score
same,binding signal,[6],-0.297 z-score
same,binding signal,[7],-0.325 z-score
same,binding signal,[8],-0.334 z-score
same,binding signal,[9],-0.31 z-score
same,binding signal,[10],-0.328 z-score
same,binding signal,[11],-0.345 z-score
same,binding signal,[12],-0.357 z-score
same,binding signal,[13],-0.325 z-score
same,binding signal,[14],-0.347 z-score
same,binding signal,[15],-0.312 z-score
same,binding signal,[16],-0.361 z-score
same,binding signal,[17],-0.341 z-score
same,binding signal,[18],-0.335 z-score
same,binding signal,[19],-0.35 z-score
same,binding signal,[20],-0.339 z-score

# Some of the entries above, reformatted:
sequence	measurement	setting	value
GGGAGGCTGAGGCAGG [G4-1 biotinylated (PQS2)]	binding signal	[14]	-0.347 z-score
same	binding signal	[15]	-0.312 z-score
